Values quoted from earlier work in publication PMC12181400, “Leveraging viral genome sequences and machine learning models for identification of potentially selective antiviral agents” (Communications Chemistry, 2025).

Tested on: cell viability (tox21-ar-mda-kb2-luc-antagonist-p2)
Details: cited from earlier work

NS(=O)(=O)c1cc(C(=O)O)c(NCc2ccco2)cc1Cl [Furosemide]
tox21-ar-mda-kb2-luc-antagonist-p2-viability (curve rank): 0
